Data reported in PubChem BioAssay AID2685 (National Center for Advancing Translational Sciences (NCATS), 2010).
The list shows a part of the results. The main result of the screen is listed elsewhere. These columns were measured beside it and carry no call. Most of these compounds were active or inconclusive in the main read-out, so they are no random draw. The note in brackets gives the kind of curve behind each potency; many fits are weak.

Assay: qHTS Assay for Lipid Storage Modulators in Drosophila S3 Cells;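 as to cell number change: cells counted by Cell Tracker Red CMTPX staining in the red channel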
Conditions: BODIPY lipid droplet fluorescence, 18-24 h; for cell number change: measured here: cell count max response, cells fed with added oleic acid
Method in brief: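 Laser-scanning cytometry quantifies lipid droplet accumulation (500–530 nm total intensity; droplet/cell object ratio) in oleic acid-fed (400 uM added) Drosophila S3 cells treated with a concentration series. 20 uM Triacsin C defined 100% inhibition.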

[1] = measured here: lipid fluorescence (Fed channel) AC50, cells fed with added oleic acid
[2] = measured here: cell number channel AC50, cells fed with added oleic acid

SMILES | cell number change [%] | AC50 [1] | AC50 [2]
Cc1ccccc1OC(C)C(=O)Nc1ccc(S(=O)(=O)Nc2nccs2)cc1 (stereo not given) | 1.26 | 0.00517 µM [rising, full curve, poor fit] | 
CC(=O)N1CCCC(C(=O)c2ccc(Oc3ccccc3)cc2)C1 (stereo not given) | -28.6 | 20.6 µM [falling, single point] | 
C=CCn1c(C)cc(C(=O)CSc2ccc(NC(C)=O)cc2)c1C | -22.5 | 18.4 µM [falling, single point] | 
CCn1c(=O)n(CCc2ccccc2)c(=O)c2c3c(sc21)CCCC3 | 90.9 | 2.91 µM [rising, full curve] | 2.59 µM [rising, full curve]
CCC(=O)NC(=S)Nc1cccc(NC(=O)c2ccccc2C)c1 | 20.6 | 4.11 µM [rising, single point] | 
Clc1cccc(Cl)c1Cn1ccc(C2CC2)n1 | -0.652 | 4.61 µM [rising, single point] | 
CC(C)(C)NC(=O)CN(C(=O)CCN1CCCc2ccccc21)C(C)(C)C |  | 25.9 µM [falling, partial curve] | 
Cc1cc(C(=O)C(C)OC(=O)c2ccc(NC(=O)CC#N)cc2)c(C)n1-c1ccc(OC(F)F)cc1 (stereo not given) | -3.89 | 16.4 µM [falling, partial curve] | 
Cc1ccc(CNC(=O)CN(C)S(=O)(=O)c2ccc3c(c2)n(C)c(=O)c(=O)n3C)cc1 | 24.5 | 29.1 µM [rising, single point] | 
O=C(CN(C(=O)CSc1nnc(COc2ccccc2)o1)c1ccc(F)cc1)NC1CCCCC1 |  | 6.51 µM [rising, single point] | 4.11 µM [rising, single point]
CCN1CCN(C(c2cccs2)C(C)NC(=O)C(=O)N2CCCCC2)CC1 (stereo not given) | 20.3 | 29.1 µM [rising, partial curve] | 
Clc1cccc(Cl)c1CSc1nnc(/C=C/c2ccccc2)o1 | 154 |  | 0.058 µM [falling, full curve, poor fit]
Cc1ccc(OCC(=O)Nc2ccc(S(=O)(=O)Nc3ccccn3)cc2)cc1C | 87.7 |  | 
Fc1cccc2sc(N3CCCCC3)nc12 |  | 0.651 µM [falling, single point] | 
O=C(NNC(=O)c1c(F)cccc1F)c1sccc1-n1cccc1 | -22.7 |  | 
CCc1ccc(C2C(C#N)=C(N)C(C#N)(C#N)C3=CCC(C(C)(C)C)CC32)cc1 (stereo not given) | -77.7 | 20.6 µM [falling, partial curve] | 18.4 µM [falling, partial curve]
CCOC(=O)c1[nH]c(C)c(C(=O)OCC(=O)NCc2ccc(OC)c(OC)c2)c1C | -41.3 | 0.411 µM [falling, full curve] | 16.4 µM [falling, partial curve]
Cc1cccc(C(=O)NNC(=O)c2n[nH]c(=O)c3ccccc23)c1C | 43 | 2.91 µM [falling, single point] | 
O=C(COC(=O)c1ccc(NS(=O)(=O)c2ccc3c(c2)OCCO3)cc1)NC1CC1 | 8.34 | 25.9 µM [falling, single point] | 
CC(/C=N/NC(=O)c1ccc(Br)cc1)=C\c1ccccc1 | -31.1 | 23.1 µM [falling, single point] | 18.4 µM [falling, single point]

Of the compounds above, 5 have four or more nitrogen atoms:
SMILES | cell number change [%] | AC50 [1] | AC50 [2]
Cc1ccc(CNC(=O)CN(C)S(=O)(=O)c2ccc3c(c2)n(C)c(=O)c(=O)n3C)cc1 | 24.5 | 29.1 µM [rising, single point] | 
O=C(CN(C(=O)CSc1nnc(COc2ccccc2)o1)c1ccc(F)cc1)NC1CCCCC1 |  | 6.51 µM [rising, single point] | 4.11 µM [rising, single point]
CCN1CCN(C(c2cccs2)C(C)NC(=O)C(=O)N2CCCCC2)CC1 (stereo not given) | 20.3 | 29.1 µM [rising, partial curve] | 
CCc1ccc(C2C(C#N)=C(N)C(C#N)(C#N)C3=CCC(C(C)(C)C)CC32)cc1 (stereo not given) | -77.7 | 20.6 µM [falling, partial curve] | 18.4 µM [falling, partial curve]
Cc1cccc(C(=O)NNC(=O)c2n[nH]c(=O)c3ccccc23)c1C | 43 | 2.91 µM [falling, single point] | 

(cont.)

SMILES | cell number change [%] | AC50 [1] | AC50 [2]
O=C(CCCN1C(=O)c2ccccc2C1=O)NCCc1ccc(OC(F)F)cc1 | -7.66 | 0.58 µM [rising, single point] | 
Cc1cc(C)cc(NC(=S)NCc2cccs2)c1 | -22.9 | 29.1 µM [falling, single point] | 
O=C(Cc1ccc(F)cc1)N1CCOCC1 | 12.5 | 29.1 µM [rising, single point] | 
Cc1nc(SCC(=O)CC(=O)OC(C)C)c(C#N)c(C)c1C | 117 |  | 18.4 µM [rising, single point]
O=C(NNC1=NS(=O)(=O)c2ccccc21)c1ccc(Cl)cc1 | 2.28 |  | 
Oc1ccc(/C=N/N2CCN(C3c4ccccc4-c4ccccc43)CC2)c(O)c1 | 20.7 | 29.1 µM [falling, partial curve] | 
COc1cccc2c(=O)cc(C)n(CC(=O)Nc3ccc(Br)cc3)c12 | 13.7 | 0.651 µM [rising, full curve, poor fit] | 
C=CCSc1nc2c(c(=O)[nH]1)C(C(C)C)C(C#N)=C(N)O2 (stereo not given) | -11.2 | 0.82 µM [falling, full curve] | 0.82 µM [falling, full curve]
O=C(Cc1cccc(F)c1)Nc1ccc2c(c1)CCC2 | 2.7 |  | 
COc1cc(C)c(CN2CCCCC2CO)cc1C (stereo not given) | 0.527 | 0.13 µM [rising, full curve, poor fit] | 
CCn1nc(C(=O)OCc2c(C)noc2C)c2ccccc2c1=O | 44 | 5.17 µM [rising, partial curve] | 0.461 µM [rising, full curve]
O=C1CCCN1CC(O)CS(=O)(=O)Cc1ccccc1Cl (stereo not given) | 9.33 | 6.51 µM [falling, single point] | 
CCN(CC(=O)Nc1ccccc1-c1ccccc1)Cc1nc2ccccc2c(=O)[nH]1 | 5.89 | 1.03 µM [rising, single point] | 
Cc1ccc(NC(=O)COc2cccc(Oc3ccccc3)c2)cc1S(=O)(=O)N1CCOCC1 | -21.7 |  | 0.00461 µM [falling, full curve, poor fit]
CCOc1ncccc1C(=O)NCc1ccc(C)cc1 | -6.09 | 0.092 µM [rising, full curve, poor fit] | 
CC(=O)N1CCCc2cc(S(=O)(=O)N3CCC(C)CC3)ccc21 | -13.9 | 3.26 µM [falling, single point] | 
O=C(CCS(=O)(=O)c1ccc(Br)cc1)NCc1cccs1 | -6.49 | 16.4 µM [falling, single point] | 
CCOC(=O)c1c(NC(=O)CSc2ncccn2)sc2c1CCN(Cc1ccccc1)C2 | -50.6 | 1.16 µM [rising, partial curve] | 16.4 µM [falling, partial curve]
CCOc1ccc(-c2cc(C(=O)NN=C3CCN(C)CC3)[nH]n2)cc1 | -23.1 |  | 
O=C(N/N=C/c1cccs1)c1cnccn1 |  | 3.26 µM [falling, single point] | 

SMILES | cell number change [%] | AC50 [1] | AC50 [2]
O=C(COc1cc(Cl)c(Cl)cc1Cl)N1CCN(c2ccccn2)CC1 | 9.94 | 18.4 µM [rising, single point] | 
COc1cc(-c2cccs2)cc(=O)c2c(C)oc(C)c12 | -33.3 | 18.4 µM [falling, partial curve, poor fit] | 8.2 µM [falling, partial curve]
CCOC(=O)c1c(C)[nH]c(C)c1C(=O)CSc1nnc(-c2ccc(OC(F)F)cc2)o1 |  | 0.259 µM [rising, partial curve, poor fit] | 0.291 µM [rising, partial curve, poor fit]
Cc1ccc2[nH]c(CCN(C)C)c(CC#N)c2c1 |  |  | 3.66 µM [falling, single point]
Cc1ccc(C(=O)COC(=O)c2cc(Cl)nc3ccccc23)cc1 |  |  | 0.326 µM [falling, partial curve, poor fit]
Cn1c(N)c(C(=O)COC(=O)c2cc(C(F)(F)F)nc3ccccc23)c(=O)n(C)c1=O | 12.1 | 5.8 µM [rising, partial curve, poor fit] | 
CCC(C)NC(=O)C1CCC(CNS(=O)(=O)c2ccccc2)CC1 (stereo not given) | -20.4 | 23.1 µM [falling, single point] | 0.82 µM [falling, full curve, poor fit]
CC12CCC(=O)N1C(C(=O)Nc1ccc(Cl)c(Cl)c1)CS2 (stereo not given) | 24.9 |  | 
CCN(CC)c1ccc2cc(-c3nc(-c4ccc(OC)cc4)cs3)c(=O)oc2c1 | -102 | 2.06 µM [falling, full curve] | 4.61 µM [falling, full curve]
CC1(C)Cc2c(sc3c2c(=O)n(-c2cccc(Cl)c2)c(=O)n3CC(N)=O)CO1 | -12.4 | 29.1 µM [rising, single point] | 
COc1ccccc1NC(=O)CSc1ccc2nnc(CCNC(=O)c3ccccc3)n2n1 | -15.3 | 32.6 µM [falling, partial curve, poor fit] | 
COc1ccc(N/N=C(\C=N\O)C(=O)c2ccc(OC)cc2)cc1 |  | 0.13 µM [falling, full curve, poor fit] | 6.51 µM [rising, single point]
Cc1cc(C(=O)COC(=O)c2cc(Cl)c(O)c(Cl)c2)c(C)n1C | 21.8 | 1.84 µM [rising, partial curve, poor fit] | 
CC(=O)Nc1ccc(NC(=O)C(C)OC(=O)CNC(=O)c2sc3ccccc3c2Cl)cc1 (stereo not given) | -32 | 23.1 µM [falling, partial curve, poor fit] | 29.1 µM [falling, single point]
CN(C)/C(CN1CCOCC1)=C1\N=C(c2ccccc2)OC1=O | 32.8 |  | 5.8 µM [rising, partial curve, poor fit]
Cc1ccc(N(C)C(=O)C2CCN(S(=O)(=O)c3ccc4c(c3)oc(=O)n4C)CC2)cc1 | 28.7 |  | 
CC1CCCCN1C(=O)C1CCCN(S(=O)(=O)c2cccc3nsnc23)C1 (stereo not given) | -11.3 | 2.91 µM [falling, partial curve] | 
Cc1cc(C)n2nc(CC(=O)NNC(=O)COc3ccccc3)nc2n1 | -26.4 |  | 0.0231 µM [falling, full curve, poor fit]
